# Test system: mice
# Assay: Light-dark box test
# Format: in vivo
# Conditions: gavage one month, 5 min, Diazepam 2 mg/kg
# Method: After the mice arrived, they were acclimatized for a week to enter the experiment. There were 12 mice in each group.
# The normal group mice were gavaged with the same volume of purified water, and the gavage doses of other groups were illustrated in the results table section below. The mice were gavaged every morning at fixed time (9:00) with a gavage volume of 0.1 ml·10 g^−1. the administration lasted for one month, and behavioral assays were performed 1 h after the last gavage.
# The light and dark box is composed of an integral box which is divided into two compartments (light area and dark area) of the same size (L×w×H=25 cm×25 cm×30 cm) by a middle gate (6.5 cm×6.5 cm). The light area is illuminated by white light, and the dark area is illuminated by red light. At the beginning of the test, each mouse was placed in the center of the light area facing the partition wall, and the middle gate was removed. Once four claws of one mouse entered the compartment, it was recorded as one entry. Supermaze software was used to record the distance in light area, retention time in light area and number of entries into light area in 5 minutes.
compound,measurement,value
CN1C(=O)CN=C(c2ccccc2)c2cc(Cl)ccc21 [Diazepam],Retention time in light area,152.1 ± 6.860
